The values that follow come from publication PMC10163288.

The other results are listed elsewhere or left out.

B1: il2ra_site2_3nfp_normal_mot_HHH_b1_07556_000000077_0001_42_55_H_._HHH_b1_04552_0001_0000600035_0000001_0 (protein)
chain: SSSSSDKEELEELLELLEKAVEEGDREEFRELLRRATNLAYKLRDHEAFALLAELINWLISSSSS
B2: il2ra_site2_3nfp_sap_18_mot_HHH_b1_06589_000000230_0001_37_50_H_._6169ea741eebcbe25a7a19b2986e1e54_0001_1_0001_0000100004_0000001_0_0001_af2pred_0001_af2pred_sw … (protein)
chain: SSSSSEEEKARELLEKIEEALREGDEELFRELAEELSRLIREIGDPELFIRLAELLLEFDSSSSS
B3: il2ra_site1_3nfp_sap_14_mot_HHH_b2_01680_af2_000000278_0001_1_15_H_._HHH_b2_00992_af2_0001_0000100001_0000001_0_0001_af2pred_0001_af2pred_1 (protein)
chain: SSSSTDELRRVEELKKLAKEALEEGDDEEFREILKELRRIAEEANDPAIEWLIRLLEELFSSSSS
B4: il2ra_site1_3nfp_sap_13_mot_HHH_b2_00809_af2_000000121_0001_23_40_H_._HHH_b2_04323_af2_0001_0000400012_0000001_0_0001_af2pred_0001_af2pred_1_swapped (protein)
chain: SSSSSDSLELLEKAMKAAFNGNFEEAKRLLEELEEILEEEGDERKLKKVRKQLRIIELLQSSSSS
B5: il2ra_site1_3nfp_normal_mot_HHH_b2_03478_af2_000000120_0001_43_57_H_._HEEHE_2123_0001_0000300060_0000001_0 (protein)
chain: SEEKIVEWLARLLAKTFNVPKVEIRFENNRVTVTVEGDDELAEAALRAATKAAEQAGYSVENEIE
B6: il2ra_site1_1z92_sap_19_mot_HHH_b2_05238_af2_000000252_0001_38_55_H_._HHH_b2_07485_af2_0001_0000100002_0000001_1_0001_af2pred_0001_af2pred (protein)
chain: KIEIHIVNASPQVIRLIEDLKEIPDVEVTTENYNEYTVHVTDERIAEELEHFARRAGVDVEVRMS
B7: il2ra_site1_3nfp_normal_mot_HHH_b1_04931_000000291_0001_38_56_H_._HHH_b1_04351_0001_0000100017_0000001_0 (protein)
chain: SSSSDEEVREEVERLLEELEKARDPHEATEIVREIIRLIHELGDRELSELLQKLLQKLAKSSSSS
B8: il2ra_site1_1z92_sap_18_mot_23887b7af660956ed16a9c889f5d2f9d_0001_1_af2_000000287_0001_38_52_H_._32063319e58c7a3ce97db74413982e08_0001_1_0002_0000100018_0000001 … (protein)
chain: SSSSSEEEAAESNLKIARLALKRGNREKARRALRIVKSFAKETNDPELEEEAREIEEEVNSSSSS
B9: il2ra_site1_3nfp_sap_23_mot_ems_3hC_921_af2_000000143_0001_22_40_H_._HHH_b1_07723_0001_0000200012_0000001_0_0001_af2pred_0001_af2pred (protein)
chain: SEDEEEAEKLLKRRVPPEVVKLLKLLAEAAKEGNPQAKRRLEKSEKMARRLGDEDVVEAIELLRK
B10: il2ra_site1_2b5i_normal_mot_HHH_b2_07442_af2_000000069_0001_1_16_H_._HHH_b1_01573_af2_0001_0000100006_0000001_0_af2pred_dldesign_0_af2pred (protein)
chain: SSSSDEKLDEIDDLFDKALKLYREGKKEEATKLLEEALKLAKELNDHRAAELQRLLELLKSSSSS
B11: il2ra_site1_2b5i_normal_mot_HHH_b1_05608_000000027_0001_1_14_H_._HHH_b2_03941_af2_0001_0000200008_0000001_0_af2pred_dldesign_0_af2pred (protein)
chain: SSSSSSSSEEVQKLIEEAKKEKDRRKALETLEKAYKLASALGDDELIDEIEKLARELNSSSSSSS
B12: il2ra_site2_3nfp_normal_mot_HHH_b2_07840_000000026_0001_18_34_H_._3e5e4a15067cbc373d7c33478bca156f_0001_af2_0001_0000300024_0000001_0 (protein)
chain: DEERLIQELVQAGDHALFAIALDLAEARELGDEEVVEEIKELIEELEKGELPPEEVARLVDKLLK
B13: il2ra_site2_2erj_normal_mot_HHH_b1_03107_000000098_0001_39_52_H_._HHH_b2_07490_0001_0000700026_0000001_0 (protein)
chain: SSSSTEAYEEASRATLRALELFKRGNPEEAREVLEEALRLAEELNDEAAKRYLEFARRDLDSSSS
B14: il2ra_site1_3nfp_sap_10_mot_HHH_b1_01159_af2_000000107_0001_1_20_H_._HHH_b2_02384_0001_0000300011_0000001_1_0001 (protein)
chain: TSEKLAEIIARSIKKKAGVESVTVTMRNGKITVTVKGTDEEAEAALESAEWFAERSGIPVEVETE
B15: il2ra_site1_3nfp_normal_mot_HHH_b2_08102_af2_000000255_0001_38_50_H_._HHH_b1_06235_af2_0001_0000300024_0000001_0 (protein)
chain: SSSSSREVHRATKLAKEVWRLLKEGDEEEAEELLEELRKIAEELNDKIAERFIQHLLEKLRSSSS
B16: il2ra_site1_3nfp_normal_mot_HHH_b1_03753_af2_000000088_0001_41_54_H_._HHH_b2_03582_af2_0001_0000300018_0000001_1_af2pred_0001_af2pred (protein)
chain: SSSSDDQEIAELLREAREAAEEGDREKAKEILEEALRLAEESNNPHAERKLRHSLKVLELLSSSS
B17: il2ra_site1_2b5i_normal_mot_HHH_b2_04910_000000118_0001_1_19_H_._HHH_b1_03031_0001_0000300038_0000001_0_af2pred_dldesign_0_af2pred (protein)
chain: SSSSSVRELFLEADKLYQAGKYEEALELLRRARAEAEAAGQTSALKLIDSAIKNVEALLGSSSSS
B18: il2ra_site2_3nfp_normal_mot_HHH_b1_01086_000000225_0001_20_36_H_._HHH_b2_04636_af2_0001_0000500027_0000001_0_af2pred_0001_1_af2pred_swapped (protein)
chain: SSSSSKHEKFAARLLALALRVAVEAGDEEKLEKLVELAEEIARRLGDEELQEVVEEVKKLLSSSS
B19: il2ra_site2_3nfp_sap_22_mot_HHH_b1_03716_000000142_0001_40_56_H_._HHH_b2_03198_0001_0000600012_0000001_0_0001_af2pred_0001_af2pred (protein)
chain: GPSELILELLKEDEELAFLLFSLKNKVDETNDPRLEELLREALELIEEGNPEEAKEVLKEAAKIP

The assay addresses il2ra, P01589. The assay can be described thus: yeast display titration.
Take B1: the “apparent Kd” value was “inactive: no binding seen”.
To B2 belongs “inactive: no binding seen”; to B3, “inactive: no binding seen”; to B4, “inactive: no binding seen”.
Next, B5: “inactive: no binding seen”; B6: “inactive: no binding seen”.
To B7 belongs “inactive: no binding seen”.
Regarding B8, the “apparent Kd” value was “inactive: no binding seen”.
As for B9, the “apparent Kd” value is “inactive: no binding seen”.
To B10 belongs “inactive: no binding seen”; to B11, “inactive: no binding seen”; to B12, “inactive: no binding seen”.
For the molecule B13, the “apparent Kd” value was “inactive: no binding seen”.
To B14 belongs “inactive: no binding seen”.
To B15 belongs “inactive: no binding seen”; to B16, “inactive: no binding seen”.
Next, B17: “inactive: no binding seen”; B18: “inactive: no binding seen”; B19: “inactive: no binding seen”.
